Publication PMC9232636, “Insights into the mechanism of action of the arbitrium communication system in SPbeta phages” (Nature Communications, 2022)
Construct, isoform or probe ends are uncertain for at least one entry. For some assays here: A negative result means that nothing was seen under these conditions. For some assays here: At least one verdict rests on a figure or table, not on a statement of the authors.

By UniProt entry, the sequences of proteins in these tests, tags left out. Where a name states a change or a piece, a line headed by the entry shows the natural chain unless it says otherwise.
UniProt O64094: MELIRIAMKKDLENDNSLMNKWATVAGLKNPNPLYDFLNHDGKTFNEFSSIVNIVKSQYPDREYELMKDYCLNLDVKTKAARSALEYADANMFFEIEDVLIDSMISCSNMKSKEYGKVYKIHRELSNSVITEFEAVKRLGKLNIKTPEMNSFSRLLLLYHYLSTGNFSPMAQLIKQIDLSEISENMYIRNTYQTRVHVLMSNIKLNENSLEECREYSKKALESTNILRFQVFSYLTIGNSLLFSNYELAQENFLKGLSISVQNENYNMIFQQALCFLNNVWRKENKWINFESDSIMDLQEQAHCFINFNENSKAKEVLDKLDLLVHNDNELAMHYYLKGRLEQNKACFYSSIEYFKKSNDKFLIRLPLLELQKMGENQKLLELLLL

How the values were obtained:
[1] = target: AimRSPb-I (untagged) (Bacillus phage SPbeta) (UniProt O64094); assay: BLI; conditions: BLI: PBS (0.01% Tween, 0.1% BSA for hydration, baseline and dissociation), AimR 0.015-2.5 uM, temperature not stated; recombinant protein; protein details: N-terminal His tag removed
AimRKat = AimRKat (UniProt A0A7G5CHT1); assay: EMSA; conditions: EMSA: 50 mM Tris pH 8, 250 mM NaCl, room temperature 10 min, 0.5 uM peptide, gel at 4 C, recombinant protein, protein details: N-terminal 6xHis removed by TEV
AimRKat-N273A = AimRKat-N273A (UniProt A0A7G5CHT1); assay: EMSA; conditions: EMSA: 50 mM Tris pH 8, 250 mM NaCl, room temperature 10 min, 0.5 uM peptide, gel at 4 C, recombinant protein, protein details: N-terminal 6xHis removed by TEV
[2] = AimPKat peptide GIVRGA (releases DNA)

## GGGAAAGTTCCAGAAATTCAAAAATCAAAAAATAAGAACATGGGG (double strand) [aimX-boxPhi BLI probe (DNA_Phi3T_b)]
[1]
  Kd: > 1000 nM

## GTTGATCACTTAAATATTAGGTTTTAATAACATCTAGTGATGGCC (double strand) [aimX-boxSPb EMSA probe (DNA_SPb)]
AimRKat; no peptide
  binding result: binds

## GTTGATGTTCCAGAAATTCAAAAATCAAAAAATAAGAACATGGCC (double strand) [aimX-boxPhi EMSA probe (DNA_Phi3T)]
AimRKat; faint nonspecific shadow noted in review reply
  binding result: no binding

## GTTGATCACTTAAATATTAAGTTTTTATAACATCTAGTGATGGCC (double strand) [aimX-boxKat EMSA probe (DNA_kat)]
AimRKat; [2]
  binding result: no binding
AimRKat; AimPPhi peptide SAIRGA
  binding result: binds
AimRKat; AimPSPb peptide GMPRGA
  binding result: binds
AimRKat; no peptide
  binding result: binds
AimRKat-N273A; [2]
  binding result: no binding
AimRKat-N273A; AimPPhi peptide SAIRGA
  binding result: binds
AimRKat-N273A; AimPSPb peptide GMPRGA (releases DNA)
  binding result: no binding
AimRKat-N273A; no peptide
  binding result: binds
